The record followed here is article PMC10853454, “ADAM19 cleaves the PTH receptor and associates with brachydactyly type E” (Life Science Alliance, 2024).

The chains behind the UniProt entries cited, without tags or fusion partners. Residues count along the entry.
UniProt Q03431, residues 27-593: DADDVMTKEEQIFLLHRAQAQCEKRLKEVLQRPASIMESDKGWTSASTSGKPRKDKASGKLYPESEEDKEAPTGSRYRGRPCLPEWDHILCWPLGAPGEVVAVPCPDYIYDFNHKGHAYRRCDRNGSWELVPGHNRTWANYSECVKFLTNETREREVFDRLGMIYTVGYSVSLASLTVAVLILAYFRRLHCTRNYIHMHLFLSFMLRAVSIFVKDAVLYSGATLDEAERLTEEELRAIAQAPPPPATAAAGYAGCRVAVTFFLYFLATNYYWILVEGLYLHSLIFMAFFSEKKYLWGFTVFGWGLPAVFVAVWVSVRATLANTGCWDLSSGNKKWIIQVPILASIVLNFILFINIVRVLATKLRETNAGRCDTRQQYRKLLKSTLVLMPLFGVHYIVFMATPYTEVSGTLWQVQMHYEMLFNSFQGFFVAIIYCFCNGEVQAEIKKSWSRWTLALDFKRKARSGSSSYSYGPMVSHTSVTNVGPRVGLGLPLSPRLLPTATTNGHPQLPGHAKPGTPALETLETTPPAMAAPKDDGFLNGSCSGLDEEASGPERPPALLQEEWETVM
UniProt P32121: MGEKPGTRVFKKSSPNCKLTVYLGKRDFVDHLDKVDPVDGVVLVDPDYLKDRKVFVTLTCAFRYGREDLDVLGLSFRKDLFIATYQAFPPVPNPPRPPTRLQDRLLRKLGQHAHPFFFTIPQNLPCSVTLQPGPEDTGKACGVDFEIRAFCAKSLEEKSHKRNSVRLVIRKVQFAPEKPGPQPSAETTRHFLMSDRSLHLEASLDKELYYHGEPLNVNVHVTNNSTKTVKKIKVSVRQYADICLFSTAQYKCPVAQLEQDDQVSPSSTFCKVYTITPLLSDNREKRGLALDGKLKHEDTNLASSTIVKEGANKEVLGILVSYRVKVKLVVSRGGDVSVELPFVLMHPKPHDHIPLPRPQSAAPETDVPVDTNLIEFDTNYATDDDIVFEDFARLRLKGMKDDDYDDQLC

These are yes or no findings as the source states them, for the method shown. In cells and extracts the contact can be indirect. Some entries that bind do so weakly or less than the wild type.

In this assay the target is PTHR1-Nanoluc (parathyroid hormone receptor 1, expressed without ADAM19) (human) (UniProt Q03431). Kind of assay: FRET or BRET; NanoBRET in living U2OS and SaOS (Saos2) cells transiently transfected with PTHR1-Nanoluc and β-arrestin2-cpVenus, with or without ADAM19 (ratio 1:1:2); read after addition of PTH or PTHrP; furimazine substrate; 37°C. For orientation: BRET reads energy transfer from a luciferase to a nearby fluorophore.

As to “β-arrestin2-cpVenus (from UniProt P32121 1-409)”, the binding result is given as “binds”.
